{"source": "patent US20220030896A2", "about": "“CHOLINE ESTER-CONTAINING COMPOSITION FOR ORAL INGESTION” (Shinshu University, priority 2016, published 2022)", "key": {"[1]": {"experiment": "Change over time of AcCh amount in aqueous pH solutions (standard sample)", "type": "physicochemical", "method": "A method for stabilizing choline esters in eggplants was examined. […] Therefore, firstly, the concentration change over time of an AcCh standard sample was examined under neutral and acidic conditions. The neutral solution (pH 7.0) was a phosphate buffer solution, and the acidic solutions (pH 4.1, pH 3.6, pH 3.1, pH 2.6) were prepared by adding acetic acid; the pH solutions with an AcCh concentration of 1.9 mg/mL were allowed to remain at ambient temperature (23 to 25° C.) for 0, 3, 6, 12 days, and then the AcCh content was quantified."}, "[2]": {"tested_on": "spontaneously hypertensive rats (SHR)", "experiment": "Repeated oral administration test of AcCh in SHR that did not fast", "type": "in vivo, rat", "conditions": "non-fasted SHR", "from_the_text": "This AcCh dose at which a blood pressure-lowering effect occurred in SHRs in normal condition upon oral ingestion was extrapolated to humans using Kleiber's law (Non-Patent Document 22). According to Kleiber's law, the mammalian metabolic rate is assumed to be proportional to the ¾ power of body weight, assuming the SHR weight to be 370 g and human weight to be 60 kg, the effective dose for humans is estimated to be 45.4 times the effective dose for SHRs.\nWhen this AcCh dose was extrapolated to humans using Kleiber's law (Non-Patent Document 22), the upper limit of the daily human effective dose was 3.36×10^−6 mol (491 μg). Therefore, the daily effective dose for humans with high blood pressure having genetic characteristics such as SHRs was estimated to be in the range of 5 to 500 μg."}, "[3]": {"tested_on": "spontaneously hypertensive rats (SHR)", "experiment": "Single oral administration test in spontaneously hypertensive rats (tail cuff blood pressure, heart rate)", "type": "in vivo, rat", "conditions": "1.00×10^−9 mol/kg AcCh or equivalent, vs water control", "method": "The lyophilized eggplant powder was prepared by washing a 'Senshu' water eggplant from […], Osaka-fu with water, by sterilizing the eggplant with hypochlorous acid, and by finely grinding the edible part after lyophilisation. […] In order to compare the blood pressure-lowering effect, an administration test of an AcCh standard sample of 1.00×10^-9 mol/kg was performed in the same manner and the systolic blood pressure was measured. To a control group only water was administered under the same conditions. 0, 3, 6, 9, and 24 hours after the oral administration, systolic blood pressure, diastolic blood pressure and heart rate were measured by the tail cuff method using the non-invasive blood pressure measuring instrument Softron BP-98A (Softron Co., Ltd., Tokyo)."}, "[4]": {"tested_on": "spontaneously hypertensive rats (SHR)", "conditions": "purified compound, SHRs, single oral administration; cited from earlier work"}, "[5]": {"tested_on": "spontaneously hypertensive rats (SHR)", "conditions": "SHRs that did not fast, repeated oral administration; cited from earlier work"}}, "note": "Like-named read-outs stand apart in the source and are kept apart here. For at least one compound, name, drawing or mass did not settle the structure."}
{"smiles": "CC(=O)OCC[N+](C)(C)C", "note": "[AcCh, acetylcholine]", "values": [{"measurement": "AcCh amount", "setting": "[1]; pH 2.6 (1.50% acetic acid), 0 days", "value": 100, "unit": "%"}, {"measurement": "AcCh amount", "setting": "[1]; pH 2.6 (1.50% acetic acid), 3 days", "value": 91.8, "unit": "%"}, {"measurement": "AcCh amount", "setting": "[1]; pH 2.6 (1.50% acetic acid), 6 days", "value": 89.1, "unit": "%"}, {"measurement": "AcCh amount", "setting": "[1]; pH 2.6 (1.50% acetic acid), 12 days", "value": 88, "unit": "%"}, {"measurement": "AcCh amount", "setting": "[1]; pH 3.1 (0.15% acetic acid), 0 days", "value": 100, "unit": "%"}, {"measurement": "AcCh amount", "setting": "[1]; pH 3.1 (0.15% acetic acid), 3 days", "value": 98.6, "unit": "%"}, {"measurement": "AcCh amount", "setting": "[1]; pH 3.1 (0.15% acetic acid), 6 days", "value": 97.3, "unit": "%"}, {"measurement": "AcCh amount", "setting": "[1]; pH 3.1 (0.15% acetic acid), 12 days", "value": 97.0, "unit": "%"}, {"measurement": "AcCh amount", "setting": "[1]; pH 3.6 (0.015% acetic acid), 0 days", "value": 100, "unit": "%"}, {"measurement": "AcCh amount", "setting": "[1]; pH 3.6 (0.015% acetic acid), 3 days", "value": 100.3, "unit": "%"}, {"measurement": "AcCh amount", "setting": "[1]; pH 3.6 (0.015% acetic acid), 6 days", "value": 101.0, "unit": "%"}, {"measurement": "AcCh amount", "setting": "[1]; pH 3.6 (0.015% acetic acid), 12 days", "value": 98.7, "unit": "%"}, {"measurement": "AcCh amount", "setting": "[1]; pH 4.1 (0.0015% acetic acid), 0 days", "value": 100, "unit": "%"}, {"measurement": "AcCh amount", "setting": "[1]; pH 4.1 (0.0015% acetic acid), 3 days", "value": 103.3, "unit": "%"}, {"measurement": "AcCh amount", "setting": "[1]; pH 4.1 (0.0015% acetic acid), 6 days", "value": 101.9, "unit": "%"}, {"measurement": "AcCh amount", "setting": "[1]; pH 4.1 (0.0015% acetic acid), 12 days", "value": 105.3, "unit": "%"}, {"measurement": "AcCh amount", "setting": "[1]; pH 7.0 phosphate buffer, 0 days, ambient temperature", "value": 100, "unit": "%"}, {"measurement": "AcCh amount", "setting": "[1]; pH 7.0 phosphate buffer, 3 days", "value": 76.6, "unit": "%"}, {"measurement": "AcCh amount", "setting": "[1]; pH 7.0 phosphate buffer, 6 days", "value": 66.5, "unit": "%"}, {"measurement": "AcCh amount", "setting": "[1]; pH 7.0 phosphate buffer, 12 days", "value": 52.3, "unit": "%"}, {"measurement": "blood pressure-lowering effect", "setting": "[2]; 2.00×10^−7 mol (29.2 μg)/kg", "value": "greatly weakened"}, {"measurement": "blood pressure-lowering effect", "setting": "[2]; 2.00×10^−9 mol (0.292 μg)/kg", "value": "greatly weakened"}, {"measurement": "systolic blood pressure-lowering effect", "setting": "[3]", "value": "almost the same blood pressure-lowering effect"}, {"measurement": "blood pressure-lowering effect", "setting": "[4]", "value": "blood pressure-lowering effect is shown"}, {"measurement": "effective daily dose of AcCh", "setting": "[5]", "value": "1e-08", "unit": "mol/kg"}]}
